PubChem BioAssay AID493014 (National Center for Advancing Translational Sciences (NCATS), 2011)
Values joined by “and” are separate entries in the source; they are usually repeats but may differ in a detail not shown here. Identical values can stand only once. This is one part of the list. The main result of the screen is listed elsewhere. These columns were measured beside it and carry no call. The list favours compounds with an active or inconclusive main result. Words in brackets tell the shape of the fitted curve; partial curves, single points and poor fits give uncertain potencies.

Test: qHTS Assay to Find Inhibitors of Chronic Active B-Cell Receptor Signaling
Conditions: ABC-DLBCL IkBa-CBG/CBR reporter, luminescence ratio (green luciferase fused to IkBa over red control in TMD8 lymphoma cells), 4 h
Summary of the method: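 Concentration-response series (up to 46 uM) were applied to TMD8 dual-reporter cells for 4 h at 37C with doxycycline. Green/red ratio, after filter-overlap correction, defined %Activity; red signal alone was normalised to basal cells and zero luminescence.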

[1] = measured here: CBR red luminescence, cell number
[2] = measured here: IkBa-CBG green luminescence

CNC(=O)c1cc2cc(OC)ccc2n1CCN(Cc1ccccc1)Cc1ccccc1
AC50 [1]: 18.4 µM [rising, single point]

O=C(Nc1ccc(Cl)cc1Cl)C1=Cc2ccccc2OC1
AC50 [1]: 7.31 µM [rising, partial curve, poor fit]

CCC(C(=O)NCc1ccc(F)cc1)N(CCc1ccccc1)C(=O)c1snc(C(N)=O)c1N (stereo not given)
AC50 [1]: 35.5 µM [falling, partial curve, poor fit]

COC(=O)c1cccc(NC(=O)NC2CCCN2S(=O)(=O)c2ccc(Cl)cc2)c1 (stereo not given)
AC50 [1]: 25.9 µM [falling, single point]

O=C(Nc1cccc(Cl)c1)c1ccc2ncsc2c1
AC50 [1]: 22.4 µM [falling, single point]

O=C(O)c1ccc2c(c1Sc1ccccc1)C(=O)c1ccccc1C2=O
AC50 [1]: 17.8 µM [rising, single point]

CCCCCCC(=O)N(O)C1CC(=O)N(c2ccccc2)C1=O (stereo not given)
AC50 [1]: 11.2 µM [falling, partial curve]
AC50 [2]: 35.5 µM [rising, partial curve, poor fit]

CCCC(=O)Nc1cccc(NC(=O)c2ccc(C)c([N+](=O)[O-])c2)c1
AC50 [1]: 35.5 µM [falling, single point]

CCOc1ccccc1NC(=O)Nc1ccc(CC#N)cc1
AC50 [1]: 2.24 µM [falling, partial curve, poor fit]

CC(C)C(=O)Nc1nnc(NC(=S)Nc2ccccc2)s1
AC50 [1]: 14.1 µM [falling, single point]

Nc1nc(CN2CCCCCC2)nc(Nc2ccccc2)n1
AC50 [1]: 23.1 µM [falling, single point]

O=C(N/N=C/c1ccc(-c2ccccc2[N+](=O)[O-])o1)[C@H]1C[C@@H]1c1ccccc1
AC50 [1]: 23.1 µM [falling, partial curve]

CC1CCCN(c2ccc([N+](=O)[O-])cc2C(=O)c2ccccc2)C1 (stereo not given)
AC50 [1]: 8.2 µM [rising, single point]
AC50 [2]: 7.31 µM [falling, partial curve]

C=CCn1c2ccccc2c2nnc(SCCCn3c(=O)[nH]c4ccccc43)nc21
AC50 [1]: 16.4 µM [falling, partial curve]
AC50 [2]: 18.4 µM [rising, partial curve, poor fit]

COc1cccc(CNC(=O)c2c[nH]n3c(=O)c(Cl)c(C)nc23)c1
AC50 [1]: 25.9 µM [falling, single point]

Nc1ncnc2c1cnn2-c1ccccc1
AC50 [1]: 12.6 µM [falling, partial curve, poor fit]

Cc1ccc(Cl)cc1N1CCN(C(=O)c2ccc3nc[nH]c3c2)CC1
AC50 [1]: 29.1 µM [falling, partial curve, poor fit]

CCCCN(Cc1cc2ccccc2[nH]c1=O)S(=O)(=O)c1ccc(C)cc1
AC50 [1]: 15.8 µM [falling, single point]

Nc1c(-c2ccccc2)cnn1-c1ccc(C(=O)O)cc1
AC50 [1]: 1.16 µM [falling, full curve]

COc1ccc([N+](=O)[O-])cc1NC(=O)C(C)Sc1nc(-c2ccccc2)cs1 (stereo not given)
AC50 [1]: 14.6 µM [rising, partial curve]

Cc1ccc(/C=C2\SC(=S)N(/N=C/c3cc([N+](=O)[O-])ccc3O)C2=O)o1
AC50 [1]: 35.5 µM [falling, single point]

O=C(Nc1cccc2c1CCCC2)C1CCN(c2nnnn2-c2ccccc2)CC1
AC50 [1]: 23.1 µM [rising, single point]

CCCCNc1c(-c2cccc(-c3cc(C(C)=O)cs3)c2)nc2cc(C)ccn12
AC50 [1]: 14.6 µM [falling, partial curve]

Cc1[nH]c(=O)[nH]c(=O)c1/C=N/NC(=O)CCCCCNC(=O)OC(C)(C)C
AC50 [1]: 31.6 µM [rising, single point]

CC(C)CCNC(=S)Nc1ccc(Br)cc1
AC50 [1]: 0.231 µM [rising, full curve, poor fit]

Cc1nc(-c2ccc(NC(=O)C(C)(C)C)cc2)c(-c2ccccc2)o1
AC50 [1]: 7.08 µM [rising, full curve]

Cc1ccccc1Nc1nc(N)nc(COC(=O)CCS(=O)(=O)c2ccc(Cl)cc2)n1
AC50 [1]: 8.2 µM [falling, partial curve]

O=C(/C=C/c1ccccc1)NC(NC(=S)Nc1cc(Cl)ccc1Cl)C(Cl)(Cl)Cl (stereo not given)
AC50 [1]: 7.94 µM [rising, partial curve]

Cc1c(OCC(=O)NCCN2CCOCC2)ccc2c1oc(=O)c1ccccc12
AC50 [1]: 0.501 µM [rising, full curve, poor fit]

CCCN(CCC)C(=O)CSc1nc2n[nH]c(C)c2c(=N)n1-c1ccc(OCC)cc1
AC50 [1]: 14.1 µM [falling, single point]

COc1ccc(-c2cc3nc4ccccc4n3c(N)c2C#N)cc1
AC50 [1]: 0.447 µM [rising, full curve, poor fit]

CCN1C[C@@H]2[C@@H]3C(=O)N(Cc4ccccc4)C(=O)[C@@H]3[C@](Cc3ccccc3)(C(=O)OC)N2C1=NC1CCCCC1
AC50 [1]: 20.6 µM [falling, partial curve, poor fit]

CCOCCOC(=O)c1[nH]c2c(c1C)C(=O)CC(c1cccs1)C2 (stereo not given)
AC50 [1]: 0.631 µM [rising, full curve, poor fit]
AC50 [2]: 1.12 µM [falling, full curve, poor fit]

O=C(NC1CCCCC1)Oc1cc2oc(=O)sc2cc1Br
AC50 [1]: 35.5 µM [rising, single point]

O=C(Nc1ccc(NC(=O)C2CC2)cn1)c1ccccc1
AC50 [1]: 7.08 µM [falling, partial curve]

Cc1ccc(-c2nnc(-c3cccc(Br)c3)o2)cc1
AC50 [1]: 2.59 µM [rising, partial curve, poor fit]

COc1ccc(N2CCN(C(=O)CCNS(=O)(=O)c3cc(Br)cnc3N)CC2)cc1
AC50 [1]: 7.08 µM [falling, partial curve]

COc1ccccc1OCc1nnc(SCC(=O)Nc2nnc(C3CC3)s2)n1C
AC50 [1]: 3.55 µM [rising, partial curve, poor fit]

COC(=O)c1sccc1NC(=O)c1ccc(Cl)s1
AC50 [1]: 16.4 µM [falling, single point]

Cc1cc(C)c(NC(=O)CNC(=O)COC(=O)/C=C/c2cccs2)c(C)c1
AC50 [1]: 2.31 µM [rising, partial curve, poor fit]

CCS(=O)(=O)N1CCC(C(=O)NCc2ccc(OC)cc2OC)CC1
AC50 [1]: 35.5 µM [rising, single point]

O=C(Nc1ccc(F)cc1F)C1(c2cccs2)CCOCC1
AC50 [1]: 20 µM [falling, single point]

Cc1cc2cc3c(cc2nc1SCC(=O)N1CCOCC1)OCO3
AC50 [1]: 6.31 µM [rising, partial curve, poor fit]

CCCOc1ccc(OC(=O)c2ccc(Br)o2)cc1
AC50 [1]: 17.8 µM [rising, partial curve, poor fit]

CCCN(CCC)CCCNC(=O)c1ccc2c(Cl)c3c(nc2c1)CCC3
AC50 [1]: 12.6 µM [falling, partial curve]

CCOC(=O)c1c(/N=C/C2C(=O)CCCC2=O)sc2c1CCCC2
AC50 [1]: 1 µM [falling, full curve]

CCOC(=O)c1cnc2ccc(Cl)cc2c1N1CCN(C)CC1
AC50 [1]: 29.1 µM [falling, single point]

C/C(CS(=O)(=O)c1ccc(Cl)c(Cl)c1)=N/NC(N)=S
AC50 [1]: 35.5 µM [falling, single point]

CCOC(=O)CNC(=O)CSc1nc(Cc2ccccc2)nc2ccccc12
AC50 [1]: 35.5 µM [falling, partial curve, poor fit]

CCOC(=O)C1=C(c2ccccc2)Nc2nc(C)nn2C1c1cccc(OC)c1OC (stereo not given)
AC50 [1]: 1.84 µM [rising, partial curve, poor fit]

Cc1ccccc1NC(=O)N1CCN(C(=O)c2ccco2)CC1
AC50 [1]: 20 µM [falling, partial curve, poor fit]

O=C(Nc1ccc(N2CCOCC2)nc1)c1ccc(C(F)(F)F)cc1
AC50 [1]: 10 µM [rising, partial curve, poor fit]

CCN1C(=NCCc2c[nH]c3ccccc23)N[C@@H](c2ccccc2)C(C(=O)OC)=C1C
AC50 [1]: 10 µM [falling, partial curve] and 28.2 µM [falling, single point]

O=C(NC(=O)c1ccccc1)Nc1ccc(Cl)cn1
AC50 [1]: 1.26 µM [falling, full curve]

COCCCN1C(=O)C(=O)/C(=C(/O)c2ccc3c(c2)CC(C)O3)C1c1cccnc1 (stereo not given)
AC50 [1]: 0.00411 µM [rising, full curve, poor fit]

Cc1ccnn1-c1ccc(C(=O)NCc2ccccc2CN2CCOCC2)cc1
AC50 [1]: 20.6 µM [falling, partial curve, poor fit]

CSc1ccc(C(=O)C2CCCN(S(=O)(=O)c3c(C)noc3C)C2)cc1 (stereo not given)
AC50 [1]: 22.4 µM [rising, partial curve, poor fit]

CN(Cc1ccc(CNC[C@H]2O[C@@H](n3cnc4c(N)ncnc43)[C@H](O)[C@@H]2O)o1)S(C)(=O)=O
AC50 [1]: 0.82 µM [rising, full curve, poor fit]

Cc1ccc(Nc2nc(CSc3nnc(-c4ccccc4)n3C)cs2)cc1
AC50 [1]: 29.1 µM [falling, single point]

CC(=O)Nc1cccc(C(=O)NC2CCCc3c2cnn3-c2ccccc2F)c1 (stereo not given)
AC50 [1]: 3.55 µM [rising, partial curve, poor fit]

[N-]=[N+]=CC(=O)CCCN1C(=O)c2ccccc2C1=O
AC50 [1]: 35.5 µM [rising, single point]
